The results in this text go back to PMC11445230.

Chains of the proteins cited; added tags and fusions are not shown. Lines headed by an entry give the natural chain unless they say otherwise; changes in a name come on top.
UniProt Q9Y653: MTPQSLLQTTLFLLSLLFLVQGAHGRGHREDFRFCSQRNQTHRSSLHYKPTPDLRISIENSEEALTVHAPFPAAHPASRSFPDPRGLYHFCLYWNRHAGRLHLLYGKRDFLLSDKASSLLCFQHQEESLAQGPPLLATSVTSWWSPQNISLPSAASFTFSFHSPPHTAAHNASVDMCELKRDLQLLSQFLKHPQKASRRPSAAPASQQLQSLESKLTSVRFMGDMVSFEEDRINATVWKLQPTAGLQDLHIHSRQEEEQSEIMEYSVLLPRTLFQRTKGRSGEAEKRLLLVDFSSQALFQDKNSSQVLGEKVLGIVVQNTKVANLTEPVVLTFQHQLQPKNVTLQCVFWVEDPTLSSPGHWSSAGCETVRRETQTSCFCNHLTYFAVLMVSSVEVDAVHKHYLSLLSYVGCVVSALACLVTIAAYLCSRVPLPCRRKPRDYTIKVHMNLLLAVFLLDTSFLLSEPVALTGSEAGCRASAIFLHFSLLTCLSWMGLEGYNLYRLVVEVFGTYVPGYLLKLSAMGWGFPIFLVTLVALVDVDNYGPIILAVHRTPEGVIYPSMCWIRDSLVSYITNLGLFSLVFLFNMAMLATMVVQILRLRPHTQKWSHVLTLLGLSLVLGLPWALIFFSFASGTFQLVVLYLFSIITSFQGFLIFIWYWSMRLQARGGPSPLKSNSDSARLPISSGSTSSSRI

This assay deals with Purified recombinant GPR56 (GST pull-down) (UniProt Q9Y653). The experiment in a line: pull-down; GST pull-down with purified recombinant GPR56; called a direct interaction; which partner carried GST and the source of TGFBR1 not stated.

These are yes or no findings as the source states them, for the method shown. In cells and extracts the contact can be indirect. Binding calls can cover weak binding; strength is not graded here. Tags and fused reporters may be left off the sequences shown.

B1: TGFBR1 (GST pull-down) (receptor, UniProt P36897 34-503)
chain: LQCFCHLCTKDNFTCVTDGLCFVSVTETTDKVIHNSMCIAEIDLIPRDRPFVCAPSSKTGSVTTTYCCNQDHCNKIELPTTVKSSPGLGPVELAAVIAGPVCFVCISLMLMVYICHNRTVIHHRVPNEEDPSLDRPFISEGTTLKDLIYDMTTSGSGSGLPLLVQRTIARTIVLQESIGKGRFGEVWRGKWRGEEVAVKIFSSREERSWFREAEIYQTVMLRHENILGFIAADNKDNGTWTQLWLVSDYHEHGSLFDYLNRYTVTVEGMIKLALSTASGLAHLHMEIVGTQGKPAIAHRDLKSKNILVKKNGTCCIADLGLAVRHDSATDTIDIAPNHRVGTKRYMAPEVLDDSINMKHFESFKRADIYAMGLVFWEIARRCSIGGIHEDYQLPYYDLVPSDPSVEEMRKVVCEQKLRPNIPNRWQSCEALRVMAKIMRECWYANGAARLTALRIKKTLSQLSQQEGIKM
For B1, the binding result is reported as “binds”.
